± gives the standard deviation of the averaged measurements. The entries are a selection whose mix differs from that of the whole data set. Small differences around the control level are noise.
Compound: Nc1ncnc2c1ncn2[C@@H]1O[C@H](COP(=O)(O)OP(=O)(O)NP(=O)(O)O)[C@@H](O)[C@H]1O [adenylyl imidodiphosphate]
Assay: NP40-soluble protein abundance relative to vehicle (solubility fold change) (ratio); higher = more soluble protein in presence of AMP-PNP
Summary of the method: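 Each value is a fold change relative to the detergent-processed vehicle, calculated per replicate from vsn-normalised intensities. Jurkat crude lysate received eight concentrations (0.1 to 10 mM) for 10 min at room temperature and 3 min at 37 °C, then was solubilised in 0.8% NP40 with benzonase (60 min, 4 °C). The ultracentrifuged supernatant was TMT-labelled and run by LC-MS/MS in three independent experiments.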

The chains behind the UniProt entries cited, without tags or fusion partners. Where a name states a change or a piece, a line headed by the entry shows the natural chain unless it says otherwise.
UniProt Q9HB19: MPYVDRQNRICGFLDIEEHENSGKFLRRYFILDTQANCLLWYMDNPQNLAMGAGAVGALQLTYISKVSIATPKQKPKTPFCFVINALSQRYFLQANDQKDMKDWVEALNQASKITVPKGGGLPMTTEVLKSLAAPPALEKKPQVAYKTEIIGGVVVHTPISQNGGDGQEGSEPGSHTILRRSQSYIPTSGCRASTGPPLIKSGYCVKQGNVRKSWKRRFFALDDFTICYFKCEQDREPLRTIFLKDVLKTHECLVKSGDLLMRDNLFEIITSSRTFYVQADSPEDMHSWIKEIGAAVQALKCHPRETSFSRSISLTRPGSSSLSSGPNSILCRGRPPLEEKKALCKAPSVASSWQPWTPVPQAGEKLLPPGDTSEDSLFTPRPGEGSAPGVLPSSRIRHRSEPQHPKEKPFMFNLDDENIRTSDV
UniProt E9PIB1: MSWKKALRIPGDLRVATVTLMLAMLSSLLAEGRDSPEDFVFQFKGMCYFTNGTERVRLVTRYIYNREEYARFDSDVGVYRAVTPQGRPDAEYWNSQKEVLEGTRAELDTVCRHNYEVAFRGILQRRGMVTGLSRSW
UniProt Q9BVL4, whole entry: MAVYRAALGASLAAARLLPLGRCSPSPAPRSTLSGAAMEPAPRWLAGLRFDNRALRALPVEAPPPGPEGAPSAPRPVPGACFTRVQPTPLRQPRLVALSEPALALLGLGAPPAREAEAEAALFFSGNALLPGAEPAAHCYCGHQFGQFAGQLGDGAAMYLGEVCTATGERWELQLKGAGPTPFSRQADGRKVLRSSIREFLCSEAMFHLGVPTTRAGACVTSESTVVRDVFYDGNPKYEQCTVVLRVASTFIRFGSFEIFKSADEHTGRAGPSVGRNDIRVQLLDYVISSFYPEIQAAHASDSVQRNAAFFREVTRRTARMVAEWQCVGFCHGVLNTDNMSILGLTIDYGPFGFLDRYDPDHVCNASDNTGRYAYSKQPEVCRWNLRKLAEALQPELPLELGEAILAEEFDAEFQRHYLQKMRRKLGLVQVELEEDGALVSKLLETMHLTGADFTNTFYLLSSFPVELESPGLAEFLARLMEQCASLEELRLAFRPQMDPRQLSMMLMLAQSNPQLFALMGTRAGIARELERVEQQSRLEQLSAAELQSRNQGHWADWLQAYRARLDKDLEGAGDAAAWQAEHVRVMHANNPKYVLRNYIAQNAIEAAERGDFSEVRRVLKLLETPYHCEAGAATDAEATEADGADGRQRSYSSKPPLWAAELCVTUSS
UniProt Q9Y4E1, whole entry: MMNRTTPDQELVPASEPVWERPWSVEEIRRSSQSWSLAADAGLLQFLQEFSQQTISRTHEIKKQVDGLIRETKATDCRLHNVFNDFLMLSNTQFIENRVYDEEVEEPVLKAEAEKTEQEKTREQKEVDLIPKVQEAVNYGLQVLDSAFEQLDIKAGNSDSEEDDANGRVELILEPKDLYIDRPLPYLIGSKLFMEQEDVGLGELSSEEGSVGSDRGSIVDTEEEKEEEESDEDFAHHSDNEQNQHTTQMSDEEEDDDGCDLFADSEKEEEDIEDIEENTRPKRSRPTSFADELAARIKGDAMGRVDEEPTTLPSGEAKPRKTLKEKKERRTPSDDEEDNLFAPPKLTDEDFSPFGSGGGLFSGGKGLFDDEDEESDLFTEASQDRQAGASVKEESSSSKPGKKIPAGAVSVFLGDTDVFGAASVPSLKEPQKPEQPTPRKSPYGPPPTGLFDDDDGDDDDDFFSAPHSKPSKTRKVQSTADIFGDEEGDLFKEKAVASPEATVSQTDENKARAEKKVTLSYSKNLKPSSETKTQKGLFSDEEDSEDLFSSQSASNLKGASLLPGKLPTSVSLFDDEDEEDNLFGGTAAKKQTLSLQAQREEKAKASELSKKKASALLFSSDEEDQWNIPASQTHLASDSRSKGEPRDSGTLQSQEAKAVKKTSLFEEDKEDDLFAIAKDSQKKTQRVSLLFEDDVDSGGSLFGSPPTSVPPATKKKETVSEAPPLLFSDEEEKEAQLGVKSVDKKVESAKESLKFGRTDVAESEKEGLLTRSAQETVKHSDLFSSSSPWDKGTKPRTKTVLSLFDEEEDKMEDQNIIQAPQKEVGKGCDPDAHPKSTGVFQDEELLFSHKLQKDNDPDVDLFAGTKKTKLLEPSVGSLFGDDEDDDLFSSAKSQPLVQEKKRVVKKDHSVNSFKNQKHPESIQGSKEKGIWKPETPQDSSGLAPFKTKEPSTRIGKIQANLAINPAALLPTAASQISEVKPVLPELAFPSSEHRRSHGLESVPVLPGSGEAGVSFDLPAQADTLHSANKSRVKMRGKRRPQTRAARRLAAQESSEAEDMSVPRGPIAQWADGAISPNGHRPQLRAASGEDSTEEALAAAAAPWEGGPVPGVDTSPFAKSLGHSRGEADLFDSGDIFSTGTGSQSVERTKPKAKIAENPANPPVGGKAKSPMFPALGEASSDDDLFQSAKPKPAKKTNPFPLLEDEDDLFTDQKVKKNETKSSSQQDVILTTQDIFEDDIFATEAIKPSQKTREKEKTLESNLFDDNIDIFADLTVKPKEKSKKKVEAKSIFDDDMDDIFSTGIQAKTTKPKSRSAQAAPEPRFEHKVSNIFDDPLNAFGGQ
UniProt Q7Z2E3: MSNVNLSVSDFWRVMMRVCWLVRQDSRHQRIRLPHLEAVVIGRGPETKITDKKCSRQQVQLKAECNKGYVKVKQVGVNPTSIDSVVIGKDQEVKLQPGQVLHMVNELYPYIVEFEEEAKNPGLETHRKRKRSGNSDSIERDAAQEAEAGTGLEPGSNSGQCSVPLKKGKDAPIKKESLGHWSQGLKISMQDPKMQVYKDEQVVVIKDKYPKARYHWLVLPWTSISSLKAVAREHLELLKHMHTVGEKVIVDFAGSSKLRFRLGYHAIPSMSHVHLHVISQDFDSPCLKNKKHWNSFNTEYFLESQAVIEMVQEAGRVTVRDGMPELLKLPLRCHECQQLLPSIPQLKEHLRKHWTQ
UniProt Q9NP73: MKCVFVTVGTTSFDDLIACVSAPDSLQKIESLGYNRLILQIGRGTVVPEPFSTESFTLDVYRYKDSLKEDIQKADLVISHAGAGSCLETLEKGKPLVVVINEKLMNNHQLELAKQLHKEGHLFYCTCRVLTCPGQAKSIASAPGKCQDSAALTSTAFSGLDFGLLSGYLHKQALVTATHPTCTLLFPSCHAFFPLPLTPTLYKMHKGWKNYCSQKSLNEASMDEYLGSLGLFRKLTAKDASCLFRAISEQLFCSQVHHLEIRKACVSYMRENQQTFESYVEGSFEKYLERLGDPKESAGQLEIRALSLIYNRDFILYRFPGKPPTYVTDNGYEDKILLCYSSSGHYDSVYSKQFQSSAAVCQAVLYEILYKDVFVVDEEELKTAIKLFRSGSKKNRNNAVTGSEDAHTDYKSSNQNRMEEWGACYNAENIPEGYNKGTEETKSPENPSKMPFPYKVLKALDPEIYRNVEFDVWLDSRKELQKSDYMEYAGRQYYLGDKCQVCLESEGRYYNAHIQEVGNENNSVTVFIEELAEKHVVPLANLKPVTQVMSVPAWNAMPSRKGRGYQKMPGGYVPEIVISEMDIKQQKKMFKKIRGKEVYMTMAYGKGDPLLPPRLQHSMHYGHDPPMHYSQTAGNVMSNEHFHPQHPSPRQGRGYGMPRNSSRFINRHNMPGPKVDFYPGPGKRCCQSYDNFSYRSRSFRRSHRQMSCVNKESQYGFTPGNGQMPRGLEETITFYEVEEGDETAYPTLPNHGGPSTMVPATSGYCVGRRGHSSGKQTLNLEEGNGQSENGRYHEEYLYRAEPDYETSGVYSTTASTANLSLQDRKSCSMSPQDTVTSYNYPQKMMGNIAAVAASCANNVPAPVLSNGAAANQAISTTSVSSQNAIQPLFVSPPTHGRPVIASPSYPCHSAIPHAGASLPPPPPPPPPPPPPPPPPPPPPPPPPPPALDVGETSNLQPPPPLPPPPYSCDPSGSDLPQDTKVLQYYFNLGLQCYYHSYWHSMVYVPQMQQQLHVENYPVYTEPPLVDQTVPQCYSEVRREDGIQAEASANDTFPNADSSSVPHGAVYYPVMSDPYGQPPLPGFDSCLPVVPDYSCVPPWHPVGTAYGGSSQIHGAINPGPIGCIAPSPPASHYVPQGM
UniProt Q99501: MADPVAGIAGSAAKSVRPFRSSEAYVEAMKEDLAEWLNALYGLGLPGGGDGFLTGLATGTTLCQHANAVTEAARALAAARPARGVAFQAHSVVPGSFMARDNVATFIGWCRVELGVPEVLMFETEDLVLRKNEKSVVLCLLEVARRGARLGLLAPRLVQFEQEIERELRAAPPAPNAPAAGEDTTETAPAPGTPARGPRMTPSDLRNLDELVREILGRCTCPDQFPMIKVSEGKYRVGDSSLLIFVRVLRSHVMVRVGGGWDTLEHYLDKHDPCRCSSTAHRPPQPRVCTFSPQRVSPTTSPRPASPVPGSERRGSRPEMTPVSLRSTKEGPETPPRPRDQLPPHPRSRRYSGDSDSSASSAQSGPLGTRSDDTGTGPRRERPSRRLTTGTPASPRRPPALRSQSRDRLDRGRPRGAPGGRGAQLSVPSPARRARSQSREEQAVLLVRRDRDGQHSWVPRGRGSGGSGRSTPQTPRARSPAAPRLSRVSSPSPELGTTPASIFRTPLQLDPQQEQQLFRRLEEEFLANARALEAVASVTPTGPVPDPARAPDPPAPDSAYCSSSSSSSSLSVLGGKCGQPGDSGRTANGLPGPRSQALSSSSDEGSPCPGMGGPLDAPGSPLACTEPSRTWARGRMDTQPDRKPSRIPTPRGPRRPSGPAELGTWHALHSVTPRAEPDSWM
UniProt P08575: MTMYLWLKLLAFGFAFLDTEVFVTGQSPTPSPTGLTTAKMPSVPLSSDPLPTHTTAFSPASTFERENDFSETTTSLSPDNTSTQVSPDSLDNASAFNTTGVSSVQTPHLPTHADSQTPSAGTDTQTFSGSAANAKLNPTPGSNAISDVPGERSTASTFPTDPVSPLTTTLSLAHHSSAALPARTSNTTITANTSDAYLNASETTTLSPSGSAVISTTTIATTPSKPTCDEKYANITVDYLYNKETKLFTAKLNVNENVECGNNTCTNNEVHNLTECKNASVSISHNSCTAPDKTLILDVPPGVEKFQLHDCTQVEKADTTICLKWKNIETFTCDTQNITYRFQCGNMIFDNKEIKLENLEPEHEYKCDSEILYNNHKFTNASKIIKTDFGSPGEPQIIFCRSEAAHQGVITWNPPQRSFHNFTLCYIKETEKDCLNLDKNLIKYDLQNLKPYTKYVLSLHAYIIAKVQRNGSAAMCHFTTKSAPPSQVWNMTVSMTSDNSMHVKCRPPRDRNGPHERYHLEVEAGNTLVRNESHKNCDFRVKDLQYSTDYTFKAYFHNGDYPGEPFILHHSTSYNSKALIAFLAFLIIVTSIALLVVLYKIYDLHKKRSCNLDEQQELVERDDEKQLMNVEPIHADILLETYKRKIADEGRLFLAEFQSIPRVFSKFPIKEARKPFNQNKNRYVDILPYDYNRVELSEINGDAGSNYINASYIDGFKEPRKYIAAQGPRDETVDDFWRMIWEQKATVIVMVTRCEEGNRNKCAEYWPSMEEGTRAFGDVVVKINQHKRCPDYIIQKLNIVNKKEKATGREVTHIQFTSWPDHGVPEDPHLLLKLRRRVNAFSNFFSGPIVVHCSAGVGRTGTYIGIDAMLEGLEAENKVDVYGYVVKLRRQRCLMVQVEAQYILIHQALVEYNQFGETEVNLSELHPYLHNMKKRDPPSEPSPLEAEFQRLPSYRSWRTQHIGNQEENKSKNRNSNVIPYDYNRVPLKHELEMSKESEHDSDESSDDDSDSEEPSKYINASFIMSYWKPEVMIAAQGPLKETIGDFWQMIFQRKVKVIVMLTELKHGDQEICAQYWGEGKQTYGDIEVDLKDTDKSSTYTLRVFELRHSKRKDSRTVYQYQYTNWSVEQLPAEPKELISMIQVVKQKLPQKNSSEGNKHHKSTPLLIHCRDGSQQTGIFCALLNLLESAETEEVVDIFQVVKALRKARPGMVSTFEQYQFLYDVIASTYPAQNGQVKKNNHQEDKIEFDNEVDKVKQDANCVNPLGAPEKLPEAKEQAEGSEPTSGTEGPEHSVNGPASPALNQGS
UniProt P22570: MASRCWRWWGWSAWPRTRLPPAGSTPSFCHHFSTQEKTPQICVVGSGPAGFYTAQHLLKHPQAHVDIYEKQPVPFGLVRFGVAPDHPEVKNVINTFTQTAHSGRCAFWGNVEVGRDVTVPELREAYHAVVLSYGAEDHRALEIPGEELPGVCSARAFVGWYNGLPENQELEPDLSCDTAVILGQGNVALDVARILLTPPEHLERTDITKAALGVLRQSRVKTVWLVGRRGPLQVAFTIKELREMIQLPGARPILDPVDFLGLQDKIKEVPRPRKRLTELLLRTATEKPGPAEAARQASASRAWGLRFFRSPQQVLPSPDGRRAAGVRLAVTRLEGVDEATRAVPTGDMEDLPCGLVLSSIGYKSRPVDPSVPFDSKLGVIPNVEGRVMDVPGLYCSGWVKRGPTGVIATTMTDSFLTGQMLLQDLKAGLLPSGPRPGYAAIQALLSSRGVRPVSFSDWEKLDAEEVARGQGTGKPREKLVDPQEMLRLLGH

A0A087WZ32|A0A087X038|A8K727 and related entries (UniProt Q9HB19)
NP40-soluble protein abundance (concentration: 0.1mM): 0.983 ± 0.017 | NP40-soluble protein abundance (concentration: 0.5mM): 0.984 ± 0.044

A0A140T9B7|A0A140T9Z6|P01889 and related entries (UniProt P18463+P01889+P30486+P10321+P16188+Q30167+P30504+P30460+P30493+Q29865+Q6DU44+E9PIB1+Q8MH48+P30508+Q5SRN5+Q9TNN7+Q29940+O19617+Q29963+Q31610)
NP40-soluble protein abundance (concentration: 0.1mM): 0.99 ± 0.015 | NP40-soluble protein abundance (concentration: 0.5mM): 1.002 ± 0.01

A0A087WW88|Q9UQN3 (UniProt Q9UQN3)
NP40-soluble protein abundance (concentration: 0.1mM): 1.01 ± 0.026 | NP40-soluble protein abundance (concentration: 0.5mM): 1.02 ± 0.049

A0A087WY82|Q9Y624 (UniProt Q9Y624)
NP40-soluble protein abundance (concentration: 0.1mM): 0.998 ± 0.012 | NP40-soluble protein abundance (concentration: 0.5mM): 0.981 ± 0.017

A0A0A0MTN0|Q13617 and related entries (UniProt Q13617)
NP40-soluble protein abundance (concentration: 0.1mM): 0.971 ± 0.034 | NP40-soluble protein abundance (concentration: 0.5mM): 0.979 ± 0.05

A0A096LP75|C4AMC7 and related entries (UniProt Q6VEQ5+C4AMC7)
NP40-soluble protein abundance (concentration: 0.1mM): 0.99 ± 0.053 | NP40-soluble protein abundance (concentration: 0.5mM): 0.977 ± 0.092

A0A0A0MRJ0|Q5VT25 and related entries (UniProt Q5VT25)
NP40-soluble protein abundance (concentration: 0.1mM): 0.984 ± 0.038 | NP40-soluble protein abundance (concentration: 0.5mM): 0.9968 ± 0.0096

A0A0A0MTJ9|A0A0R4J2G3|Q6PIU2 and related entries (UniProt Q6PIU2)
NP40-soluble protein abundance (concentration: 0.1mM): 0.9716 ± 0.0078 | NP40-soluble protein abundance (concentration: 0.5mM): 1 ± 0.039

A0A087X0V5|P29728 and related entries (UniProt P29728)
NP40-soluble protein abundance (concentration: 0.1mM): 1.04 ± 0.019 | NP40-soluble protein abundance (concentration: 0.5mM): 1.08 ± 0.086

A0A0D9SEJ5|F5GY05 and related entries (UniProt Q96EK7)
NP40-soluble protein abundance (concentration: 0.1mM): 0.991 ± 0.057 | NP40-soluble protein abundance (concentration: 0.5mM): 0.959 ± 0.018

A0A140TA86|Q5XKP0 (UniProt Q5XKP0)
NP40-soluble protein abundance (concentration: 0.1mM): 0.966 ± 0.041 | NP40-soluble protein abundance (concentration: 0.5mM): 0.9583 ± 0.0044

A0A087X0Q9|Q9BVL4 (UniProt Q9BVL4)
NP40-soluble protein abundance (concentration: 0.1mM): 1.02 ± 0.037 | NP40-soluble protein abundance (concentration: 0.5mM): 1.03 ± 0.029

A0A0B4J1W0|F5GY88 and related entries (UniProt O75448)
NP40-soluble protein abundance (concentration: 0.1mM): 1.01 ± 0.015 | NP40-soluble protein abundance (concentration: 0.5mM): 0.985 ± 0.038

A0A0B4J1Z1|C9JAB2 and related entries (UniProt Q16629)
NP40-soluble protein abundance (concentration: 0.1mM): 1.05 ± 0.016 | NP40-soluble protein abundance (concentration: 0.5mM): 1.04 ± 0.035

A0A096LPC5|A0A0A0MR88|Q9Y4E1 and related entries (UniProt Q9Y4E1)
NP40-soluble protein abundance (concentration: 0.1mM): 1 ± 0.011 | NP40-soluble protein abundance (concentration: 0.5mM): 1.01 ± 0.055

A0A0U1RRB3|Q8IYT2 (UniProt Q8IYT2)
NP40-soluble protein abundance (concentration: 0.1mM): 1.03 ± 0.044 | NP40-soluble protein abundance (concentration: 0.5mM): 0.994 ± 0.037

A0A087WZ62
NP40-soluble protein abundance (concentration: 0.1mM): 0.965 ± 0.0086 | NP40-soluble protein abundance (concentration: 0.5mM): 0.939 ± 0.019

A0A0U1RRH6|O94880 (UniProt O94880)
NP40-soluble protein abundance (concentration: 0.1mM): 0.971 ± 0.03 | NP40-soluble protein abundance (concentration: 0.5mM): 0.995 ± 0.039

A0A0A0MRW7|Q7Z2E3 and related entries (UniProt Q7Z2E3)
NP40-soluble protein abundance (concentration: 0.1mM): 0.986 ± 0.05 | NP40-soluble protein abundance (concentration: 0.5mM): 1.01 ± 0.028

A0A096LP10|Q9NP73-2|Q9NP73 (UniProt Q9NP73)
NP40-soluble protein abundance (concentration: 0.1mM): 0.981 ± 0.023 | NP40-soluble protein abundance (concentration: 0.5mM): 1.02 ± 0.019

A0A0U1RRM6|Q8N8S7 and related entries (UniProt Q8N8S7)
NP40-soluble protein abundance (concentration: 0.1mM): 0.99 ± 0.029 | NP40-soluble protein abundance (concentration: 0.5mM): 0.99 ± 0.065

A0A087WWP8|A0A0C4DGT8|Q5VWQ0 (UniProt Q5VWQ0)
NP40-soluble protein abundance (concentration: 0.1mM): 1.04 ± 0.012 | NP40-soluble protein abundance (concentration: 0.5mM): 1.05 ± 0.05

A0A0A0MSV9|A0A0G2JH37|A0A0G2JKZ1|A2AB90 and related entries (UniProt O15533)
NP40-soluble protein abundance (concentration: 0.1mM): 1.04 ± 0.019 | NP40-soluble protein abundance (concentration: 0.5mM): 1.05 ± 0.044

A0A0C4DGJ7 (UniProt Q8WUH1)
NP40-soluble protein abundance (concentration: 0.1mM): 1.03 ± 0.022 | NP40-soluble protein abundance (concentration: 0.5mM): 0.973 ± 0.055

A0A0A0MSK6|Q13017 and related entries (UniProt Q13017)
NP40-soluble protein abundance (concentration: 0.1mM): 1 ± 0.039 | NP40-soluble protein abundance (concentration: 0.5mM): 0.993 ± 0.021

A0A5E8 and related entries (UniProt Q99501)
NP40-soluble protein abundance (concentration: 0.1mM): 1.016 ± 0.0031 | NP40-soluble protein abundance (concentration: 0.5mM): 1.02 ± 0.019

A0A087WYU2|Q96S19 (UniProt Q96S19)
NP40-soluble protein abundance (concentration: 0.1mM): 1.01 ± 0.021 | NP40-soluble protein abundance (concentration: 0.5mM): 0.9952 ± 0.0082

A0A0U1RQK7|A0A0A0MSA7|O43432 and related entries (UniProt O43432)
NP40-soluble protein abundance (concentration: 0.1mM): 0.9889 ± 0.0049 | NP40-soluble protein abundance (concentration: 0.5mM): 0.989 ± 0.03

A0A0A0MRM1|E9PL24 and related entries (UniProt Q5VU43)
NP40-soluble protein abundance (concentration: 0.1mM): 1.04 ± 0.053 | NP40-soluble protein abundance (concentration: 0.5mM): 0.98 ± 0.029

A0A0A0MT22|P08575 and related entries (UniProt P08575)
NP40-soluble protein abundance (concentration: 0.1mM): 0.977 ± 0.014 | NP40-soluble protein abundance (concentration: 0.5mM): 0.987 ± 0.024

A0A087X243|P09211 (UniProt P09211)
NP40-soluble protein abundance (concentration: 0.1mM): 0.998 ± 0.019 | NP40-soluble protein abundance (concentration: 0.5mM): 1 ± 0.056

A0A0A0MQY7|Q5VU97 (UniProt Q5VU97)
NP40-soluble protein abundance (concentration: 0.1mM): 0.9917 ± 0.0027 | NP40-soluble protein abundance (concentration: 0.5mM): 1.008 ± 0.00073

A0A0D9SEI3|A0A0D9SEN2|A0A0D9SER5|B7ZVY7 and related entries (UniProt J3QR44+P21127+B7ZVY7)
NP40-soluble protein abundance (concentration: 0.1mM): 0.984 ± 0.021 | NP40-soluble protein abundance (concentration: 0.5mM): 0.9724 ± 0.0021

A0A0C4DFN8|P22570 and related entries (UniProt P22570)
NP40-soluble protein abundance (concentration: 0.1mM): 0.99 ± 0.021 | NP40-soluble protein abundance (concentration: 0.5mM): 0.989 ± 0.013

A0A0G2JIW2|A2AE48 and related entries (UniProt Q12899)
NP40-soluble protein abundance (concentration: 0.1mM): 1.04 ± 0.034 | NP40-soluble protein abundance (concentration: 0.5mM): 1.02 ± 0.031

A0A0C4DGT4|Q643R3 (UniProt Q643R3)
NP40-soluble protein abundance (concentration: 0.1mM): 1.02 ± 0.021 | NP40-soluble protein abundance (concentration: 0.5mM): 0.995 ± 0.034

A0A0A0MQS1|Q53H96 (UniProt Q53H96)
NP40-soluble protein abundance (concentration: 0.1mM): 0.999 ± 0.031 | NP40-soluble protein abundance (concentration: 0.5mM): 0.995 ± 0.019

— the supplement of paper PMC6411743
